Measurements from patent US20040132045A1 (MERCK, published 2004).
These are yes or no findings as the source states them, for the method shown. Some results given as binding are weak or reduced against the parent protein; the word gives no strength.

By UniProt entry, the sequences of proteins in these tests, tags left out. Where a name states a change or a piece, a line headed by the entry shows the natural chain unless it says otherwise.
UniProt Q8MJ88: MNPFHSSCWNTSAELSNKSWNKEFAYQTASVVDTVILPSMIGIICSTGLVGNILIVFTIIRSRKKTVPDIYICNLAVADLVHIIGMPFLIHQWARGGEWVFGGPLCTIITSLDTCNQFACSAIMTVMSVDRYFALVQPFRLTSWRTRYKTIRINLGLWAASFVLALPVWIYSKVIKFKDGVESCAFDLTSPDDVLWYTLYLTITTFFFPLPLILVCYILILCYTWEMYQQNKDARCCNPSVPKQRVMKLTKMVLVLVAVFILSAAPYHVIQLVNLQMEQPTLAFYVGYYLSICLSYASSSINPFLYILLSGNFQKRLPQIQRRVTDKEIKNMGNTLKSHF
UniProt P20382: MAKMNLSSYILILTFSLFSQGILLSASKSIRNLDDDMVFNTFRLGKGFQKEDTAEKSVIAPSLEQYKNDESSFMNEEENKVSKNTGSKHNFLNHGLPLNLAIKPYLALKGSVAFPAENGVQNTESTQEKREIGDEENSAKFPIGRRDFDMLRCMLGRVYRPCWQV

What was measured:
ferret MCH-2R (ferret) = assay: radioligand binding assay on membranes of transfected COS-7 cells
[1] = biological target: rhesus monkey MCH-2R (melanin-concentrating hormone type 2 receptor) (rhesus monkey) (UniProt Q8MJ88); assay: radioligand binding to transfected HEK293T monolayer cells

binding (ferret MCH-2R (ferret))	binding [1]	Substance
binds	–	Melanin-concentrating hormone (MCH) (from UniProt P20382 147-165) (peptide)
–	binds	[^125I]-MCH (from UniProt P20382 147-165) (peptide)
